Reference: patent publication US20200261383A1, “PHARMACEUTICAL COMPOSITIONS” (KALVISTA PHARMACEUTICALS LIMITED, priority 2017, published 2020)
At least one read-out could not be matched to a standard name with certainty.

Assay: Ocular pharmacokinetic study in monkey, intravitreal injection on Day 1, 29 and 57
Type: in vivo, cynomolgus monkeys
Settings: monkeys; IVT 5 μg/eye (100 μg/mL) Day 1, 29, 57; sampling Day 58-99

## CCOc1ccc(C[C@@H](NC(=O)c2ccccc2)C(=O)N[C@@H](Cc2ccccc2)C(=O)NCc2ccc(CN)cc2)cc1.Cl [Compound 1, N-[(R)-1-[(S)-1-(4-Aminomethyl-benzylcarbamoyl)-2-phenyl-ethylcarbamoyl]-2-(4-ethoxy-phenyl)-ethyl]-benzamide hydrochloride]
  Cmax in Ocular Tissue, Aqueous Humor: 92.7 ng/mL or ng/g
  Cmax in Ocular Tissue, Choroid-Tissue: 693 ng/mL or ng/g
  Cmax in Ocular Tissue, Retina- Tissue: 7,580 ng/mL or ng/g
  Cmax in Ocular Tissue, Vitreous Humor: 82.6 ng/mL or ng/g
